{"source": "PubChem BioAssay AID1053208 (Peter MacCallum Cancer Centre, 2014)", "aim": "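Genes whose silencing cuts survival of bone tumour cells only with doxorubicin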 (primary screen)", "cells": "mouse osteosarcoma cells, early-passage culture from an engineered mouse model of fibroblastic bone tumour", "reagent": "siRNA pool against mouse genes, 40 nM", "time to read-out": "about 120 h (48 h before drug, then 72 h with drug)", "conditions": "doxorubicin 100 nM for 72 h, roughly 30-40% inhibitory dose", "read-out": "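Luminescent ATP signal taken as viability with or without 100 nM doxorubicin for 72 h; mean of two wells set against non-targeting siRNA and turned into robust z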", "reading the numbers": "viability z-score with doxorubicin: higher = more viable cells under doxorubicin; viability z-score without drug: higher = more viable cells with knock-down alone", "hit rule": "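a pool counts as active when its viability z-score with doxorubicin is -2 or below and its z-score without drug lies between -2 and 2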", "note": "Here is a random part of about 17,000 reagents tested. In the full data, 788 (4.7%) got an active call. 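Calls rest on z-score classes alone; an extra cut-off of viability at most 70% of control was not applied to them.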 A reagent listed more than once was tested more than once; the source does not tell the runs apart. Not all columns of the deposit are shown."}
{"gene": "Adamtsl5", "combined z-score class": "no change with or without drug", "viability z-score with doxorubicin": -0.45, "viability z-score without drug": -0.17, "activity call": "inactive"}
{"gene": "Parvb", "combined z-score class": "no change with or without drug", "viability z-score with doxorubicin": 0.34, "viability z-score without drug": -0.51, "activity call": "inactive"}
{"gene": "Prss2", "combined z-score class": "no change with or without drug", "viability z-score with doxorubicin": 0.11, "viability z-score without drug": 1.35, "activity call": "inactive"}
{"gene": "Clec2e", "combined z-score class": "low cell count with doxorubicin only", "viability z-score with doxorubicin": -2.25, "viability z-score without drug": -0.67, "activity call": "active"}
{"gene": "Tubb5", "combined z-score class": "no change with or without drug", "viability z-score with doxorubicin": 0.67, "viability z-score without drug": -0.84, "activity call": "inactive"}
{"gene": "Alms1", "combined z-score class": "high cell count with doxorubicin only", "viability z-score with doxorubicin": 2.36, "viability z-score without drug": 0.67, "activity call": "inactive"}
{"gene": "Cys1", "combined z-score class": "no change with or without drug", "viability z-score with doxorubicin": 0, "viability z-score without drug": 0.17, "activity call": "inactive"}
{"gene": "Kbtbd12", "combined z-score class": "no change with or without drug", "viability z-score with doxorubicin": -0.79, "viability z-score without drug": -1.18, "activity call": "inactive"}
{"gene": "Eid3", "combined z-score class": "low cell count with doxorubicin only", "viability z-score with doxorubicin": -4.05, "viability z-score without drug": -0.67, "activity call": "active"}
{"gene": "Hdac1", "combined z-score class": "no change with or without drug", "viability z-score with doxorubicin": 0.22, "viability z-score without drug": -0.34, "activity call": "inactive"}
{"gene": "Lnx2", "combined z-score class": "no change with or without drug", "viability z-score with doxorubicin": -1.12, "viability z-score without drug": 0.17, "activity call": "inactive"}
{"gene": "Oaf", "combined z-score class": "no change with or without drug", "viability z-score with doxorubicin": 0, "viability z-score without drug": -0.34, "activity call": "inactive"}
{"gene": "Fastkd5", "combined z-score class": "no change with or without drug", "viability z-score with doxorubicin": -1.46, "viability z-score without drug": 0.51, "activity call": "inactive"}
{"gene": "Uqcrq", "combined z-score class": "no change with or without drug", "viability z-score with doxorubicin": -0.45, "viability z-score without drug": -1.35, "activity call": "inactive"}
{"gene": "Gzf1", "combined z-score class": "no change with or without drug", "viability z-score with doxorubicin": 0.45, "viability z-score without drug": 1.18, "activity call": "inactive"}
{"gene": "Edc3", "combined z-score class": "no change with or without drug", "viability z-score with doxorubicin": -0.34, "viability z-score without drug": 1.01, "activity call": "inactive"}
{"gene": "Maco1", "combined z-score class": "no change with or without drug", "viability z-score with doxorubicin": 0, "viability z-score without drug": -0.84, "activity call": "inactive"}
{"gene": "Epha6", "combined z-score class": "no change with or without drug", "viability z-score with doxorubicin": 0.9, "viability z-score without drug": 0.67, "activity call": "inactive"}
{"gene": "Ncoa1", "combined z-score class": "no change with or without drug", "viability z-score with doxorubicin": -1.12, "viability z-score without drug": -0.67, "activity call": "inactive"}
{"gene": "Agtr2", "combined z-score class": "no change with or without drug", "viability z-score with doxorubicin": 0.34, "viability z-score without drug": -0.51, "activity call": "inactive"}
{"gene": "Agtr2", "combined z-score class": "no change with or without drug", "viability z-score with doxorubicin": 0.11, "viability z-score without drug": -0.17, "activity call": "inactive"}
{"gene": "Dhx32", "combined z-score class": "no change with or without drug", "viability z-score with doxorubicin": 1.35, "viability z-score without drug": 0.34, "activity call": "inactive"}
{"gene": "Vmn1r48", "combined z-score class": "no change with or without drug", "viability z-score with doxorubicin": -0.22, "viability z-score without drug": 0.17, "activity call": "inactive"}
{"gene": "Or6z1", "combined z-score class": "no change with or without drug", "viability z-score with doxorubicin": 0.56, "viability z-score without drug": -0.34, "activity call": "inactive"}
{"gene": "Vstm2l", "combined z-score class": "no change with or without drug", "viability z-score with doxorubicin": 0.45, "viability z-score without drug": -0.84, "activity call": "inactive"}
{"gene": "Slc66a2", "combined z-score class": "low cell count with doxorubicin only", "viability z-score with doxorubicin": -2.02, "viability z-score without drug": -0.34, "activity call": "active"}
{"gene": "Lpcat2", "combined z-score class": "no change with or without drug", "viability z-score with doxorubicin": -0.67, "viability z-score without drug": -0.67, "activity call": "inactive"}
{"gene": "Hspb7", "combined z-score class": "no change with or without drug", "viability z-score with doxorubicin": 1.91, "viability z-score without drug": 1.18, "activity call": "inactive"}

Single entries from above:
Epha6, activity call → inactive
For “combined z-score class”, Eid3 is entered as low cell count with doxorubicin only
